# Assay results as given in article PMC4381594.
# Results are given in words; binding and its absence hold for the method and conditions named. In cells and extracts the contact can be indirect. Binding can be weak; no strength is given.
# B1: XBP-1S, the active isoform of X-box binding protein 1 (protein, UniProt P17861-2 1-376)
# chain: MVVVAAAPNPADGTPKVLLLSGQPASAAGAPAGQALPLMVPAQRGASPEAASGGLPQARKRQRLTHLSPEEKALRRKLKNRVAAQTARDRKKARMSELEQQVVDLEEENQKLLLENQLLREKTHGLVVENQELRQRLGMDALVAEEEAEAKGNEVRPVAGSAESAAGAGPVVTPPEHLPMDSGGIDSSDSESDILLGILDNLDPVMFFKCPSPEPASLEELPEVYPEGPSSLPASLSLSVGTSSAKLEAINELIRFDHIYTKPLVLEIPSETESQANVVVKIEEAPLSPSENDHPEFIVSVKEEPVEDDLVPELGISNLLSSSHCPKPSSCLLDAYSDCGYGGSLSPFSDMSSLLGVNHSWEDTFANELFPQLISV
# Biological target: GCN5-Y260A/F261A (HAT-inactive GCN5 mutant) (human)
# Assay: co-IP; 293T cells co-transfected with expression plasmids; lysates; IP with anti-GCN5 antibody, Western blot with anti-XBP-1 or anti-HA; normal IgG as control
binder,measurement,value
B1,binding,binds
